Record: PubChem BioAssay AID1671195 (Yale University, 2021)
In all, the deposit lists about 22,000 reagents; shown is an unselected part. About 1,510 of them (6.9%) were called active. 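Active includes knockdowns raising or lowering LDL uptake; positive z-scores mean more uptake, negative mean less.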

- Screen: 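Regulators of LDL receptor activity judged by labelled LDL uptake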 (primary screen)
- Cell system: human Huh7 hepatoma cells
- Reagents: siRNA pool against human genes, 18 nM
- Duration: about 2 to 2.5 days of knockdown, then 8 h LDL uptake
- Treatment: DiI-labelled LDL at 30 µg/ml for 8 h, in lipoprotein-deficient serum medium
- Measured: 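Per-cell DiI-LDL intensity by automated imaging; well means scaled to the plate median and given as a robust z-score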
- Reading the numbers: robust z-score: higher = more LDL uptake after knockdown
- Call rule: 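a gene counts as active if at least two replicate z-scores exceed ±2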

gene | robust z-score, replicate 1 | robust z-score, replicate 2 | robust z-score, replicate 3 | Outcome
WDR27 | 2.32 | 1.55 | 1.86 | inactive
ZBTB16 | -0.765 | -0.904 | -0.327 | inactive
SLC25A6P2 | 0.942 | -0.0251 | 0.52 | inactive
APMAP | 2.67 | 1.97 | 0.695 | active
ZNF253 | -1.17 | -1.21 | -1.18 | inactive
LOC440928 (retired record) | 0.393 | -0.203 | 0.147 | inactive
UBOX5 | 6.65 | 6.43 | 7.25 | active
SNX22 | 1.33 | 0.882 | 0.316 | inactive
CHMP5 | -1.81 | -0.0739 | -2.15 | inactive
SAXO6 | -0.162 | -0.268 | -0.44 | inactive
CELF2-AS1 | 2.21 | 3.4 | 2.79 | active
DCUN1D1 | 1.59 | 2.38 | 2.26 | active
OR9Q1 | 1.84 | 1.27 | 1.42 | inactive
BST1 | -0.223 | -0.663 | -0.439 | inactive
ADAT1 | -2.55 | -0.999 | -0.627 | inactive
POC5-DT | -0.615 | -0.498 | -0.673 | inactive
MACIR | 0.268 | 0.79 | 0.276 | inactive
ZRANB1 | -0.31 | -0.513 | -0.529 | inactive
PINLYP | -0.448 | -0.417 | -0.376 | inactive
PPIAP33 | -1.04 | -1.07 | -0.858 | inactive
ENTR1P1 | -0.196 | -0.627 | -0.407 | inactive
RCBTB1 | 0.292 | 0.203 | -0.0766 | inactive
CORO1A | -1.7 | -1.97 | -1.48 | inactive

Next part (2 carried over from the part before).
gene | robust z-score, replicate 1 | robust z-score, replicate 2 | robust z-score, replicate 3 | Outcome
RCBTB1 | 0.292 | 0.203 | -0.0766 | inactive
CORO1A | -1.7 | -1.97 | -1.48 | inactive
PGM2 | 0.228 | 0.848 | 0.33 | inactive
LINC01096 | 0.336 | -0.283 | 0.141 | inactive
ZFTRAF1 | -0.514 | -1.25 | -0.219 | inactive
KRT1 | 1.26 | 0.498 | 0.276 | inactive
SYT15 | 0.448 | -0.116 | 0.705 | inactive
NSMCE2 | -0.831 | -1.05 | -1.22 | inactive
ARID3B | -0.184 | -0.951 | -0.541 | inactive
ATXN7L3 | -1.61 | 0.0541 | -0.128 | inactive
CAPN5 | -0.745 | -1.17 | -1.11 | inactive
SDHD | -0.178 | 0.0382 | 0.437 | inactive
CTRB1 | 0.399 | 0.0995 | 0.355 | inactive
LSM2 | 0.555 | 0.868 | 0.677 | inactive
LIN7C | -0.694 | -0.598 | -0.28 | inactive
RDM1 | 0.16 | -0.618 | -0.796 | inactive
PMVK | 0.486 | 1.03 | 0.346 | inactive
MEF2A | 1.44 | 2.6 | 1.09 | inactive
RPL31 | -1.22 | -1.33 | -0.761 | inactive
PRAMEF1 | -0.646 | -0.562 | -0.909 | inactive
PRKACB | -2.09 | -2 | -2.2 | active
NAGPA | -0.885 | 1.19 | -0.34 | inactive
LOC440559 (retired record) | -0.305 | -1.14 | -1.18 | inactive
PARD3B | -1.68 | -1.66 | -1.7 | inactive
RHOT1 | -0.355 | -0.428 | 0.261 | inactive
